Measurements: the supplement of paper PMC8728848
This is one part of the list.

Assays:
Assay in all cases: glycan array binding signal (z-score within array); higher = stronger binding
Conditions in all cases: glycan notation: IUPAC condensed, linker removed
[1] = target: Gal(b1-4)GlcNAc(b1-2)[Gal(b1-4)GlcNAc(b1-6)]Man(a1-6)[Gal(b1-4)GlcNAc(b1-2)Man(a1-3)]Man(b1-4)GlcNAc(b1-4)[Fuc(a1-6)]GlcNAc
Procedure, shortened: (§1)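 The Consortium for Functional Glycomics database supplied 3228 glycan arrays, of which those lacking an available protein sequence were dropped. The binding signal, a within-array Z-score, was averaged across arrays of the same protein sequence and across linkers. Negative scores can be read as non-binding.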

[2] = target: Gal(b1-4)GlcNAc(b1-2)[Gal(b1-4)GlcNAc(b1-6)]Man(a1-6)[GlcNAc(b1-4)][Gal(b1-4)GlcNAc(b1-2)Man(a1-3)]Man(b1-4)GlcNAc(b1-4)GlcNAc
Procedure, shortened: as §1

[3] = target: Gal(b1-4)GlcNAc(b1-2)[Gal(b1-4)GlcNAc(b1-6)]Man(a1-6)[GlcNAc(b1-4)][Gal(b1-4)GlcNAc(b1-2)[Gal(b1-4)GlcNAc(b1-4)]Man(a1-3)]Man(b1-4)GlcNAc(b1-4)[Fuc(a1-6)]GlcNAc
Procedure, shortened: as §1

[4] = target: Gal(b1-4)GlcNAc(b1-3)Gal(b1-3)GalNAc
Procedure, shortened: as §1

[5] = target: Gal(b1-4)GlcNAc(b1-3)Gal(b1-3)GlcNAc
Procedure, shortened: as §1

[6] = target: Gal(b1-4)GlcNAc(b1-3)Gal(b1-4)Glc
Procedure, shortened: as §1

[7] = target: Gal(b1-4)GlcNAc(b1-3)Gal(b1-4)GlcNAc
Procedure, shortened: as §1

[8] = target: Gal(b1-4)GlcNAc(b1-3)Gal(b1-4)GlcNAc(b1-2)Man(a1-3)[Gal(b1-4)GlcNAc(b1-3)Gal(b1-4)GlcNAc(b1-2)Man(a1-6)]Man(b1-4)GlcNAc(b1-4)GlcNAc
Procedure, shortened: as §1

[9] = target: Gal(b1-4)GlcNAc(b1-3)Gal(b1-4)GlcNAc(b1-2)Man(a1-3)[Gal(b1-4)GlcNAc(b1-3)Gal(b1-4)GlcNAc(b1-2)Man(a1-6)]Man(b1-4)GlcNAc(b1-4)[Fuc(a1-6)]GlcNAc
Procedure, shortened: as §1

[10] = target: Gal(b1-4)GlcNAc(b1-3)Gal(b1-4)GlcNAc(b1-2)[Gal(b1-4)GlcNAc(b1-3)Gal(b1-4)GlcNAc(b1-6)]Man(a1-6)[Gal(b1-4)GlcNAc(b1-3)Gal(b1-4)GlcNAc(b1-2)Man(a1-3)]Man(b1-4)GlcNAc(b1-4)GlcNAc
Procedure, shortened: as §1

[11] = target: Gal(b1-4)GlcNAc(b1-3)Gal(b1-4)GlcNAc(b1-2)[Gal(b1-4)GlcNAc(b1-3)Gal(b1-4)GlcNAc(b1-6)]Man(a1-6)[Gal(b1-4)GlcNAc(b1-3)Gal(b1-4)GlcNAc(b1-2)Man(a1-3)]Man(b1-4)GlcNAc(b1-4)[Fuc(a1-6)]GlcNAc
Procedure, shortened: as §1

[12] = target: Gal(b1-4)GlcNAc(b1-3)Gal(b1-4)GlcNAc(b1-3)Gal(b1-4)GlcNAc
Procedure, shortened: as §1

[13] = target: Gal(b1-4)GlcNAc(b1-3)Gal(b1-4)GlcNAc(b1-3)Gal(b1-4)GlcNAc(b1-2)Man(a1-3)[Gal(b1-4)GlcNAc(b1-3)Gal(b1-4)GlcNAc(b1-3)Gal(b1-4)GlcNAc(b1-2)Man(a1-6)]Man(b1-4)GlcNAc(b1-4)GlcNAc
Procedure, shortened: as §1

[14] = target: Gal(b1-4)GlcNAc(b1-3)Gal(b1-4)GlcNAc(b1-3)Gal(b1-4)GlcNAc(b1-2)Man(a1-3)[Gal(b1-4)GlcNAc(b1-3)Gal(b1-4)GlcNAc(b1-3)Gal(b1-4)GlcNAc(b1-2)Man(a1-6)]Man(b1-4)GlcNAc(b1-4)[Fuc(a1-6)]GlcNAc
Procedure, shortened: as §1

[15] = target: Gal(b1-4)GlcNAc(b1-3)Gal(b1-4)GlcNAc(b1-3)Gal(b1-4)GlcNAc(b1-2)[Gal(b1-4)GlcNAc(b1-3)Gal(b1-4)GlcNAc(b1-3)Gal(b1-4)GlcNAc(b1-6)]Man(a1-6)[Gal(b1-4)GlcNAc(b1-3)Gal(b1-4)GlcNAc(b1-3)Gal(b1-4)GlcNAc(b1-2)Man(a1-3)]Man(b1-4)GlcNAc(b1-4)[Fuc(a1-6)]GlcNAc
Procedure, shortened: as §1

[16] = target: Gal(b1-4)GlcNAc(b1-3)Gal(b1-4)GlcNAc(b1-3)Gal(b1-4)GlcNAc(b1-3)Gal(b1-4)GlcNAc(b1-2)Man(a1-3)[Gal(b1-4)GlcNAc(b1-3)Gal(b1-4)GlcNAc(b1-3)Gal(b1-4)GlcNAc(b1-3)Gal(b1-4)GlcNAc(b1-2)Man(a1-6)]Man(b1-4)GlcNAc(b1-4)GlcNAc
Procedure, shortened: as §1

[17] = target: Gal(b1-4)GlcNAc(b1-3)Gal(b1-4)GlcNAc(b1-3)Gal(b1-4)GlcNAc(b1-3)Gal(b1-4)GlcNAc(b1-2)Man(a1-3)[Gal(b1-4)GlcNAc(b1-3)Gal(b1-4)GlcNAc(b1-3)Gal(b1-4)GlcNAc(b1-3)Gal(b1-4)GlcNAc(b1-2)Man(a1-6)]Man(b1-4)GlcNAc(b1-4)[Fuc(a1-6)]GlcNAc
Procedure, shortened: as §1

[18] = target: Gal(b1-4)GlcNAc(b1-3)Gal(b1-4)GlcNAc(b1-3)Gal(b1-4)GlcNAc(b1-3)Gal(b1-4)GlcNAc(b1-2)[Gal(b1-4)GlcNAc(b1-3)Gal(b1-4)GlcNAc(b1-3)Gal(b1-4)GlcNAc(b1-3)Gal(b1-4)GlcNAc(b1-6)]Man(a1-6)[Gal(b1-4)GlcNAc(b1-3)Gal(b1-4)GlcNAc(b1-3)Gal(b1-4)GlcNAc(b1-3)Gal(b1-4)GlcNAc(b1-2)Man(a1-3)]Man(b1-4)GlcNAc(b1-4)[Fuc(a1-6)]GlcNAc
Procedure, shortened: as §1

[19] = target: Gal(b1-4)GlcNAc(b1-3)Gal(b1-4)GlcNAc(b1-3)Gal(b1-4)GlcNAc(b1-3)Gal(b1-4)GlcNAc(b1-3)Gal(b1-4)GlcNAc(b1-2)Man(a1-3)[Gal(b1-4)GlcNAc(b1-3)Gal(b1-4)GlcNAc(b1-3)Gal(b1-4)GlcNAc(b1-3)Gal(b1-4)GlcNAc(b1-3)Gal(b1-4)GlcNAc(b1-2)Man(a1-6)]Man(b1-4)GlcNAc(b1-4)GlcNAc
Procedure, shortened: as §1

[20] = target: Gal(b1-4)GlcNAc(b1-3)Gal(b1-4)GlcNAc(b1-3)Gal(b1-4)GlcNAc(b1-3)Gal(b1-4)GlcNAc(b1-3)Gal(b1-4)GlcNAc(b1-2)Man(a1-3)[Gal(b1-4)GlcNAc(b1-3)Gal(b1-4)GlcNAc(b1-3)Gal(b1-4)GlcNAc(b1-3)Gal(b1-4)GlcNAc(b1-3)Gal(b1-4)GlcNAc(b1-2)Man(a1-6)]Man(b1-4)GlcNAc(b1-4)[Fuc(a1-6)]GlcNAc
Procedure, shortened: as §1

[21] = target: Gal(b1-4)GlcNAc(b1-3)Gal(b1-4)GlcNAc(b1-3)Gal(b1-4)GlcNAc(b1-3)Gal(b1-4)GlcNAc(b1-3)Gal(b1-4)GlcNAc(b1-2)[Gal(b1-4)GlcNAc(b1-3)Gal(b1-4)GlcNAc(b1-3)Gal(b1-4)GlcNAc(b1-3)Gal(b1-4)GlcNAc(b1-3)Gal(b1-4)GlcNAc(b1-6)]Man(a1-6)[Gal(b1-4)GlcNAc(b1-3)Gal(b1-4)GlcNAc(b1-3)Gal(b1-4)GlcNAc(b1-3)Gal(b1-4)GlcNAc(b1-3)Gal(b1-4)GlcNAc(b1-2)Man(a1-3)]Man(b1-4)GlcNAc(b1-4)[Fuc(a1-6)]GlcNAc
Procedure, shortened: as §1

[22] = target: Gal(b1-4)GlcNAc(b1-3)Gal(b1-4)GlcNAc(b1-3)Gal(b1-4)GlcNAc(b1-3)Gal(b1-4)GlcNAc(b1-3)Gal(b1-4)GlcNAc(b1-3)Gal(b1-4)GlcNAc(b1-2)Man(a1-3)[Gal(b1-4)GlcNAc(b1-3)Gal(b1-4)GlcNAc(b1-3)Gal(b1-4)GlcNAc(b1-3)Gal(b1-4)GlcNAc(b1-3)Gal(b1-4)GlcNAc(b1-3)Gal(b1-4)GlcNAc(b1-2)Man(a1-6)]Man(b1-4)GlcNAc(b1-4)GlcNAc
Procedure, shortened: as §1

[23] = target: Gal(b1-4)GlcNAc(b1-3)Gal(b1-4)GlcNAc(b1-3)GalNAc
Procedure, shortened: as §1

[24] = target: Gal(b1-4)GlcNAc(b1-3)Gal(b1-4)GlcNAc(b1-3)[Gal(b1-4)GlcNAc(b1-3)Gal(b1-4)GlcNAc(b1-6)]GalNAc
Procedure, shortened: as §1

[25] = target: Gal(b1-4)GlcNAc(b1-3)Gal(b1-4)GlcNAc(b1-6)[Gal(b1-3)]GalNAc
Procedure, shortened: as §1

[26] = target: Gal(b1-4)GlcNAc(b1-3)Gal(b1-4)[Fuc(a1-3)]GlcNAc(b1-3)Gal(b1-4)[Fuc(a1-3)]GlcNAc
Procedure, shortened: as §1

[27] = target: Gal(b1-4)GlcNAc(b1-3)GalNAc
Procedure, shortened: as §1

[28] = target: Gal(b1-4)GlcNAc(b1-3)[Fuc(a1-3)GlcNAc(b1-6)]Gal(b1-4)Glc
Procedure, shortened: as §1

[29] = target: Gal(b1-4)GlcNAc(b1-3)[Gal(b1-4)GlcNAc(b1-6)]Gal(b1-4)GlcNAc
Procedure, shortened: as §1

[30] = target: Gal(b1-4)GlcNAc(b1-3)[GlcNAc(b1-6)]Gal(b1-4)GlcNAc
Procedure, shortened: as §1

[31] = target: Gal(b1-4)GlcNAc(b1-6)Gal(b1-4)GlcNAc
Procedure, shortened: as §1

[32] = target: Gal(b1-4)GlcNAc(b1-6)GalNAc
Procedure, shortened: as §1

[33] = target: Gal(b1-4)GlcNAc(b1-6)[Gal(b1-3)]GalNAc
Procedure, shortened: as §1

[34] = target: Gal(b1-4)GlcNAc(b1-6)[Gal(b1-4)GlcNAc(b1-3)]GalNAc
Procedure, shortened: as §1

Gal(b1-4)GlcNAc6P = target: Gal(b1-4)GlcNAc6P
Procedure, shortened: as §1

Gal(b1-6)Gal = target: Gal(b1-6)Gal
Procedure, shortened: as §1

Gal3S(b1-3)GalNAc = target: Gal3S(b1-3)GalNAc
Procedure, shortened: as §1

Gal3S(b1-3)GlcNAc = target: Gal3S(b1-3)GlcNAc
Procedure, shortened: as §1

B1: Epa20 (Candida glabrata) (protein)
chain: MGSSHHHHHHSSGLVPRGSHMASSNIPNNYPLGCSNKYSGHLPGLKMELYSYNYVNPRHPDPQNPGKLDQLYDPNLLGTYECFDSSYKDINYPRVGYKSKTLIGRSDGVSGILNFNFVPPWGCMPQKGQLPPAYNFKSNITLSNFTMILFGYFKPKISGNHIFSLHGDDLIYLNFGAGNAFDCCRQESSADNFGNYQAFSLWGINWEKKTLTVYLDMNTYYPIRIFYNNRDYQAIFNFSFKTEFDSSPVIDFQDYFFFLRDIDGGCPGEV
[1]
  glycan array binding signal (z-score): -0.459
[2]
  glycan array binding signal (z-score): -0.48
[3]
  glycan array binding signal (z-score): -0.764
[4]
  glycan array binding signal (z-score): -0.313
[5]
  glycan array binding signal (z-score): -0.218
[6]
  glycan array binding signal (z-score): 0.444
[7]
  glycan array binding signal (z-score): -0.384
[8]
  glycan array binding signal (z-score): 2.48
[9]
  glycan array binding signal (z-score): 0.003
[10]
  glycan array binding signal (z-score): 0.965
[11]
  glycan array binding signal (z-score): 1.2
[12]
  glycan array binding signal (z-score): -0.401
[13]
  glycan array binding signal (z-score): 3.18
[14]
  glycan array binding signal (z-score): 0.649
[15]
  glycan array binding signal (z-score): 1.32
[16]
  glycan array binding signal (z-score): 1.13
[17]
  glycan array binding signal (z-score): 1.23
[18]
  glycan array binding signal (z-score): 1.43
[19]
  glycan array binding signal (z-score): 1.25
[20]
  glycan array binding signal (z-score): 6.07
[21]
  glycan array binding signal (z-score): 1.44
[22]
  glycan array binding signal (z-score): 0.124
[23]
  glycan array binding signal (z-score): 1.1
[24]
  glycan array binding signal (z-score): 2.38
[25]
  glycan array binding signal (z-score): 0.585
[26]
  glycan array binding signal (z-score): -1.35
[27]
  glycan array binding signal (z-score): -0.537
[28]
  glycan array binding signal (z-score): -0.202
[29]
  glycan array binding signal (z-score): -0.16
[30]
  glycan array binding signal (z-score): -0.32
[31]
  glycan array binding signal (z-score): -0.015
[32]
  glycan array binding signal (z-score): 0.756
[33]
  glycan array binding signal (z-score): 0.361
[34]
  glycan array binding signal (z-score): 0.204
Gal(b1-4)GlcNAc6P
  glycan array binding signal (z-score): 0.35
Gal(b1-6)Gal
  glycan array binding signal (z-score): -0.36
Gal3S(b1-3)GalNAc
  glycan array binding signal (z-score): -0.457
Gal3S(b1-3)GlcNAc
  glycan array binding signal (z-score): -0.241
